# Screen size: about 340,000 compounds; about 170 (0.05%) were called active. Inconclusive means that the source gave no clear call. Such entries were picked first, then a sample of the others. Calls follow the shape of the dose curve; as a rule, active = well fitted inhibition curve with a large enough effect in the signal ratio, with a control signal flat (not every such curve was filed as active); inconclusive = small, poorly fitted or top-dose-only effect, or effect the other way, or a change in a side signal; inactive = flat fitted curve, though single readings scatter; the % refers to the signal ratio. Potencies beside an inconclusive call are fits to weak or partial responses and may not hold up.
# Experiment: qHTS Assay to Find Inhibitors of Chronic Active B-Cell Receptor Signaling;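 as to activity change, negative = inhibition: plate controls were basal doxycycline-induced cells for no effect and cells given 10 µM MG132 for full effect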
# Settings: ABC-DLBCL IkBa-CBG/CBR reporter, luminescence ratio (green luciferase fused to IkBa over red control in TMD8 lymphoma cells), 4 h; activity change, negative = inhibition: at 46.1 µM (top of the series) unless noted
# Procedure, shortened: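 TMD8 ABC-DLBCL cells carrying doxycycline-inducible green luciferase fused to IkappaBalpha plus unfused red luciferase were exposed to compounds (up to 46 uM) for 4 hrs at 37C. Activity came from the overlap-corrected green/red luminescence ratio.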
# Potency is read from the fitted curve at half-maximal effect.
SMILES,"activity change, negative = inhibition",Potency
COc1ccc(N2CCN(c3ccc(NC(=O)C4CCCCC4)cc3C#N)CC2)cc1,inactive,–
Cc1sc(NC(=O)c2ccccc2)c(C(=O)N2CCN(C)CC2)c1C,inconclusive: 14.4%,–
COC(=O)c1cc2n3ccccc3c(C)c(-c3ccccc3)c-2c1C(=O)OC,inactive,–
Cc1cc(C)c([N+](=O)[O-])cc1-c1ccc(/C=N/c2c(-c3ccco3)nc3ccccn23)o1,inactive,–
C/C(=N\NC(=O)c1ccccc1)c1nc2ccccc2n1C,inconclusive: -16.7%,–
COc1cc(C)ccc1OCCCCNCc1ccccc1,inconclusive: 11.7%,–
COc1ccc(-c2csc(-n3ncc(-c4cccs4)c3N)n2)cc1,inconclusive: 9.59%,–
COc1ccc(-c2onc3ccc(Br)cc23)cc1,inconclusive: 7.65%,–
O=C(N/N=C/c1ccoc1)c1ccc(Cl)cc1,inconclusive: 4.82%,–
CCOC(=O)c1sc(Nc2nc(OC)cc(OC)n2)nc1C,inconclusive: -6.15%,–
C=CCn1c(SCC(=O)NCC2CCCO2)nc2scc(-c3ccc(OC)cc3)c2c1=O (stereo unspecified),inactive,–
Cc1csc(N/N=C/c2ccc([N+](=O)[O-])cc2)n1,inconclusive: -7.11%,–
Cc1ccc(C(=O)Nc2nccs2)cc1S(=O)(=O)N1CCCCC1,inconclusive: 12.9%,–
CCOc1ccc(C(=O)/C=C/c2ccc(OC)c(OC)c2)cc1,inconclusive: -7.88%,–
O=C(O)c1ccc2nc(CO)[nH]c2c1,–,"inconclusive: 25.9 µM [falling, single point]"
COc1ccc(/C=N/Nc2snc(SC)c2C#N)cc1OC,inconclusive: -1.95%,–
O=C(c1cnn(-c2ccccc2)c1)c1ccc2ccccc2c1O,–,"inconclusive: 2.51 µM [falling, full curve, poor fit]"
COc1ccc(C(C)=O)c(OC(=O)c2ccco2)c1,inconclusive: 0.842%,–
CCN(CC)C(=O)CSc1ncnc2sccc12,inactive,–
Cc1cc(C)cc(C(=O)NC(=S)Nc2ccc3c(c2)OCCO3)c1,inactive,–
N#Cc1ccc(C(=O)Nc2cccc(NC(=O)c3ccco3)c2)c(F)c1,–,"inconclusive: 12.6 µM [falling, partial curve]"
C/C(=N\NC(=O)Cc1ccc(F)cc1)c1ccc(F)cc1,inconclusive: -0.737%,–

SMILES,"activity change, negative = inhibition",Potency
CCCCNC(=O)N1CCN(c2ccnc3cc(Cl)ccc23)CC1,inconclusive: -8.98%,–
COc1ccccc1C(=O)CSc1nccn1C,–,"inconclusive: 15.8 µM [falling, single point]"
CCN(CC)CC(=O)Nc1cc(N(C)C)nc2ccccc12,inactive,–
O=S1(=O)CCO[C@H]2Cc3ccccc3[C@H]2N1Cc1ccc(Cl)cc1,inactive,–
CN1CCN(C(=O)CCN2C(=O)/C(=C\c3ccc(F)cc3)SC2=S)CC1,inconclusive: -0.206%,–
CCc1cc(SC#N)cc(C)c1N,–,"inconclusive: 11.2 µM [cytotoxic, partial curve]"
O=C(COC(=O)c1ccccc1C(=O)N1CCN(c2ccccc2)CC1)Nc1ccc(F)cc1,–,"inconclusive: 29.1 µM [falling, single point]"
CC(C)Oc1cccc(C(=O)NC(=S)Nc2ccccc2)c1,inconclusive: -0.269%,–
Cc1nc2ccccc2c2oc(C(=O)NCCCN3CCC(C)CC3)cc12,inconclusive: -0.266%,–
Fc1ccc(NC(=S)NCc2cccnc2)cc1,inactive,–
COc1cc(C(=O)NC(=S)N(C)Cc2ccccc2)cc(OC)c1OC,–,"inconclusive: 35.5 µM [falling, partial curve, poor fit]"
O=S(=O)(NC1CCCCC1N1CCN(c2ccccc2F)CC1)c1ccc(Cl)cc1 (stereo unspecified),inconclusive: 12.2%,–
O=C(c1cc(F)ccc1F)C1CCCN(C(=O)c2ccc(F)cc2Cl)C1 (stereo unspecified),inconclusive: 15.1%,–
CC(=O)N/C(N)=N/c1nc2cc(C)ccc2o1,inconclusive: 9.41%,–
O=C(c1ccco1)N1CCN(c2ncnc3c2cnn3-c2ccccc2)CC1,inconclusive: 3.28%,–
Cc1ccc(-n2c(SCC(N)=O)nc3c(oc4ccccc43)c2=O)cc1,inactive,–
Cc1cc(C(=O)Nc2ccccc2[N+](=O)[O-])cs1,inactive,–
Cc1nc2sc(C(=O)c3ccccc3)c(N)c2c2c1CCCC2,inconclusive: -16.8%,–
CNS(=O)(=O)c1cccc(C(=O)OCC(=O)N2c3ccccc3NC(=O)C2(C)C)c1,inconclusive: 0.278%,–
[2H]C([2H])(CCOS(N)(=O)=O)c1ccccc1,inconclusive: 24.2%,–
NC(=O)c1ccccc1NC(=S)NC(=O)c1ccc(Br)o1,inconclusive: -14.8%,–
Cc1ccc2nc(SCC(=O)Nc3cccc(Cl)c3)nc(=O)n2c1,–,"inconclusive: 18.4 µM [falling, single point]"

# Looked up one by one from above (3):
SMILES,"activity change, negative = inhibition",Potency
N#Cc1ccc(C(=O)Nc2cccc(NC(=O)c3ccco3)c2)c(F)c1,–,"inconclusive: 12.6 µM [falling, partial curve]"
Cc1cc(C)cc(C(=O)NC(=S)Nc2ccc3c(c2)OCCO3)c1,inactive,–
Cc1nc2ccccc2c2oc(C(=O)NCCCN3CCC(C)CC3)cc12,inconclusive: -0.266%,–

# In the list so far, four contain a cyano group.
SMILES,"activity change, negative = inhibition",Potency
COc1ccc(N2CCN(c3ccc(NC(=O)C4CCCCC4)cc3C#N)CC2)cc1,inactive,–
COc1ccc(/C=N/Nc2snc(SC)c2C#N)cc1OC,inconclusive: -1.95%,–
N#Cc1ccc(C(=O)Nc2cccc(NC(=O)c3ccco3)c2)c(F)c1,–,"inconclusive: 12.6 µM [falling, partial curve]"
CCc1cc(SC#N)cc(C)c1N,–,"inconclusive: 11.2 µM [cytotoxic, partial curve]"

# (list continues)

SMILES,"activity change, negative = inhibition",Potency
O=C(Nc1ccc2c(c1)OCCO2)NC1(C(F)(F)F)Oc2ccccc2O1,–,"inconclusive: 29.1 µM [falling, single point]"
CCn1cc(C(C)NC(=O)COc2ccc(Cl)cc2C)c(C)n1 (stereo unspecified),inconclusive: 4.87%,–
Cc1ccc(C)c(OCC(O)CN2CCN(CCN3C(=O)c4cccc5cccc(c45)C3=O)CC2)c1 (stereo unspecified),inactive,–
Cc1ccc2c(c1)N(C(=O)CCC(=O)NCc1cccc(F)c1)CCO2,inactive,–
CC1CCc2sc(C(=O)NCC(c3ccco3)N3CCCCC3)cc2C1 (stereo unspecified),inactive,–
COc1ccccc1NC(=O)CN1C(=O)CSC(C)C1=O (stereo unspecified),–,"inconclusive: 18.4 µM [falling, partial curve, poor fit]"
CC(NC(=O)NC1CCCCC1)C(c1cccs1)N1CCN(Cc2ccccc2)CC1 (stereo unspecified),inactive,–
CCOC(=O)/C(=C\c1cccc(O)c1)c1nc2sc(C)c(C)c2c(=O)[nH]1,inconclusive: -9.96%,–
O=C(COC(=O)c1cc[n+]([O-])cc1)NCC12CC3CC(CC(C3)C1)C2,–,"inconclusive: 3.66 µM [falling, partial curve, poor fit]"
COc1cc(OC)cc(-n2nnnc2SCC(=O)NCCc2ccc(OC)c(OC)c2)c1,inconclusive: 9.2%,–
O=C(CSc1cccs1)Nc1ccc2ccccc2c1,–,"inconclusive: 15.8 µM [falling, single point]"
COc1ccc(N=C(c2ccccc2)c2c(C)[nH]n(-c3ccccc3)c2=O)c(OC)c1,inconclusive: 0.154%,–
N#CCCN(C(=O)COC(=O)CCc1ccccc1)c1ccccc1,inactive,–
COC(=O)c1ccc(Cl)c(NS(=O)(=O)c2ccc3c(c2)OCCO3)c1,inactive,–
N#CCSc1nc(-c2ccccc2)nc2ccccc12,inconclusive: 4.49%,–
CCN(/C(N)=N/c1nc(C)cc(C)n1)c1ccccc1,inactive,–
O=C(CC(Nc1cccc(Cl)c1Cl)C(=O)O)c1ccccc1 (stereo unspecified),inconclusive: 3.08%,–
Cc1ccc2[nH]c(C(=O)O)c(NC(=O)CN3CCN(c4cccc(C)c4C)CC3)c2c1,inconclusive: -0.867%,–
CCN(CC)C(=O)CC(c1ccc(F)cc1)c1ccc(OC(C)C)cc1 (stereo unspecified),inconclusive: 0.247%,–
CCOc1ccc2nc(SCC(=O)Nc3ccc4c(c3)OCCO4)[nH]c2c1,–,"inconclusive: 16.4 µM [falling, partial curve]"
Cc1ccc(-c2nnn(CC(=O)N(CC3CCCO3)C(C(=O)NC3CCCCC3)c3ccc(F)cc3)n2)o1 (stereo unspecified),–,"inconclusive: 13 µM [falling, partial curve, poor fit]"
CC1CCC(C(=O)c2c(O)c3ccccc3oc2=O)CC1 (stereo unspecified),–,"inconclusive: 29.1 µM [falling, single point]"

SMILES,"activity change, negative = inhibition",Potency
COC(=O)Nc1ccc(S(=O)(=O)NCc2ccccn2)cc1,inconclusive: 0.643%,–
CC(C)OCCCNC(=O)C1CCN(S(=O)(=O)N2CCCC2)CC1,inactive,–
Cc1ccccc1NC(=O)CSc1nc2ccccc2c(=O)n1C,inconclusive: 2.04%,–
CCOC(=O)C1CCN(c2nc3c(C)cccn3c(=O)c2/C=C(\C#N)S(=O)(=O)c2ccccc2)CC1,–,"inconclusive: 12.6 µM [activator, single point]"
Cc1ccc(-c2ccc(SCC(=O)Nc3ccc4c(c3)OCCO4)nn2)cc1,–,"inconclusive: 25.9 µM [falling, single point]"
C/C(=N\Nc1nc(-c2ccccc2O)nc2ccccc12)c1ccccc1,–,"inconclusive: 0.355 µM [rising, full curve]"
CN(/N=C/c1ccccc1O)C(=S)c1ccccc1,inactive,–
Cc1ccc2nc(N3CC(=O)Nc4ccccc43)nc(-c3ccccc3)c2c1,inactive,–
COc1ccc(CNCC(O)(c2ccccc2)c2ccccc2)cc1OC,inconclusive: -26%,–
COc1ccc(NC(=O)c2cc(S(=O)(=O)Nc3ccc(OC)cc3)cs2)cc1,inactive,–
O=C(CCS(=O)(=O)Cc1ccccc1)N1CCN(Cc2ccccc2)CC1,inactive,–
COc1ccc(C2C(C(=O)O)CCC(=O)N2c2ccc(C)cc2)cc1OC (stereo unspecified),inactive,–
O=C(NCc1ccccc1)c1cccc(COc2ccc(Cl)cc2)c1,inactive,–
O=C(C1CCN(S(=O)(=O)c2cccs2)CC1)N1CCc2ccccc2C1,inconclusive: -13.1%,–
Cc1ccccc1-c1nc(CS(=O)(=O)CC(=O)N2CCc3ccccc32)c(C)o1,inconclusive: 4.39%,–
Cc1cccc(C(=O)Nc2sc3c(c2C(=O)O)CCC3)c1,inconclusive: 266%,–
O=C(ON=C1CCN(S(=O)(=O)c2ccccc2)CC1)c1cccc(Cl)c1,inconclusive: 12.4%,–
O=C(/C=C/c1ccccn1)c1cc(Cl)cc(Cl)c1O,inactive,–
C[C@@H](NC(=O)c1nc[nH]c1C(=O)N[C@@H](CCCCNC(=O)OC(C)(C)C)C(=O)OC(C)(C)C)c1ccccc1,inactive,–
C=CCNC(=S)N/N=C/c1ccc(-c2cccc([N+](=O)[O-])c2)o1,inconclusive: 5.75%,–
